In the supplement of paper PMC4604168 (melanoma cell lines):
The other results are listed elsewhere or left out. Repeats are few or missing, and single values can be far off.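 The apoptosis fraction was the count of cleaved-PARP antibody-stained nuclei relative to all DNA-stained nuclei, imaged in 1,536-well plates. Screening doses were set so most cells survived, and baseline and induced cleaved-PARP levels vary greatly across cell lines.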

Key:
Experiment in all cases: cleaved PARP positive nuclei fraction relative to DMSO control; melanoma cells; higher = more apoptosis
Conditions in all cases: library dose: low library concentration; 72 h
501Mel = test system: 501Mel
A101D = test system: A101D
A2058 = test system: A2058
A375 = test system: A375
C32 = test system: C32
CBRC013 = test system: CBRC013 (line from a melanoma biopsy)
CBRC014 = test system: CBRC014 (line from a melanoma biopsy)
CBRC016 = test system: CBRC016 (line from a melanoma biopsy)
CBRC017 = test system: CBRC017 (line from a melanoma biopsy)
CBRC034 = test system: CBRC034 (line from a melanoma biopsy)
COLO792 = test system: COLO792
COLO800 = test system: COLO800
COLO829 = test system: COLO829
G361 = test system: G361
IPC-298 = test system: IPC-298
IST-MEL1 = test system: IST-MEL1
LB2518-MEL = test system: LB2518-MEL
LOXIMVI = test system: LOXIMVI

## Cn1nnc2c(C(N)=O)ncn2c1=O [temozolomide] + COC(=O)c1sccc1S(=O)(=O)Nc1ccc(Nc2ccccc2)cc1OC [GSK0660] (first compound 2 µM, partner dose 1 µM)
501Mel
  cleaved PARP positive nuclei fraction: 65%
A101D
  cleaved PARP positive nuclei fraction: 75.4%
A2058
  cleaved PARP positive nuclei fraction: 53.2%
A375
  cleaved PARP positive nuclei fraction: 70.2%
C32
  cleaved PARP positive nuclei fraction: 82.3%
CBRC013
  cleaved PARP positive nuclei fraction: 40%
CBRC014
  cleaved PARP positive nuclei fraction: 146%
CBRC016
  cleaved PARP positive nuclei fraction: 90.5%
CBRC017
  cleaved PARP positive nuclei fraction: 216%
CBRC034
  cleaved PARP positive nuclei fraction: 81.3%
COLO792
  cleaved PARP positive nuclei fraction: 102%
COLO800
  cleaved PARP positive nuclei fraction: 89.3%
COLO829
  cleaved PARP positive nuclei fraction: 57.3%
G361
  cleaved PARP positive nuclei fraction: 57.1%
IPC-298
  cleaved PARP positive nuclei fraction: 174%
IST-MEL1
  cleaved PARP positive nuclei fraction: 57.7%
LB2518-MEL
  cleaved PARP positive nuclei fraction: 147%
LOXIMVI
  cleaved PARP positive nuclei fraction: 21.1%

## Nc1cccc2c1CN(C1CCC(=O)NC1=O)C2=O (configuration not stated) [lenalidomide] + N#Cc1c(O)c2c(-c3ccc(-c4ccccc4O)cc3)csc2[nH]c1=O [A769662] (first compound 1 µM, partner dose 2 µM)
501Mel
  cleaved PARP positive nuclei fraction: 71%
A101D
  cleaved PARP positive nuclei fraction: 135%
A2058
  cleaved PARP positive nuclei fraction: 78.4%
A375
  cleaved PARP positive nuclei fraction: 147%
C32
  cleaved PARP positive nuclei fraction: 111%
CBRC013
  cleaved PARP positive nuclei fraction: 127%
CBRC014
  cleaved PARP positive nuclei fraction: 83.6%
CBRC016
  cleaved PARP positive nuclei fraction: 86.7%
CBRC017
  cleaved PARP positive nuclei fraction: 66.4%
CBRC034
  cleaved PARP positive nuclei fraction: 89.8%
COLO792
  cleaved PARP positive nuclei fraction: 179%
COLO800
  cleaved PARP positive nuclei fraction: 157%
COLO829
  cleaved PARP positive nuclei fraction: 121%
G361
  cleaved PARP positive nuclei fraction: 44.2%
IPC-298
  cleaved PARP positive nuclei fraction: 42.8%
IST-MEL1
  cleaved PARP positive nuclei fraction: 47.4%
LB2518-MEL
  cleaved PARP positive nuclei fraction: 83.6%
LOXIMVI
  cleaved PARP positive nuclei fraction: 69.1%

## CO[C@@H]1[C@H](N(C)C(=O)c2ccccc2)C[C@H]2O[C@]1(C)n1c3ccccc3c3c4c(c5c6ccccc6n2c5c31)C(=O)NC4 [Midostaurin] + O=C1NC(=O)/C(=C/c2ccc(-c3ccc(F)cc3O)o2)S1 [AS252424] (first compound 0.08 µM, partner dose 1 µM)
501Mel
  cleaved PARP positive nuclei fraction: 145%
A101D
  cleaved PARP positive nuclei fraction: 80.4%
A2058
  cleaved PARP positive nuclei fraction: 101%
A375
  cleaved PARP positive nuclei fraction: 104%
C32
  cleaved PARP positive nuclei fraction: 177%
CBRC013
  cleaved PARP positive nuclei fraction: 47.4%
CBRC014
  cleaved PARP positive nuclei fraction: 116%
CBRC016
  cleaved PARP positive nuclei fraction: 113%
CBRC017
  cleaved PARP positive nuclei fraction: 85.6%
CBRC034
  cleaved PARP positive nuclei fraction: 60.8%
COLO792
  cleaved PARP positive nuclei fraction: 235%
COLO800
  cleaved PARP positive nuclei fraction: 161%
COLO829
  cleaved PARP positive nuclei fraction: 112%
G361
  cleaved PARP positive nuclei fraction: 35%
IPC-298
  cleaved PARP positive nuclei fraction: 380%
IST-MEL1
  cleaved PARP positive nuclei fraction: 47.8%
LB2518-MEL
  cleaved PARP positive nuclei fraction: 268%
LOXIMVI
  cleaved PARP positive nuclei fraction: 58%

## Cn1nnc2c(C(N)=O)ncn2c1=O [temozolomide] + O=c1cc(-c2cccc3c2Sc2ccccc2S3)oc(N2CCOCC2)c1 [KU55933] (first compound 2 µM, partner dose 1 µM)
501Mel
  cleaved PARP positive nuclei fraction: 57%
A101D
  cleaved PARP positive nuclei fraction: 63.6%
A2058
  cleaved PARP positive nuclei fraction: 71.7%
A375
  cleaved PARP positive nuclei fraction: 61.9%
C32
  cleaved PARP positive nuclei fraction: 92.5%
CBRC013
  cleaved PARP positive nuclei fraction: 46.9%
CBRC014
  cleaved PARP positive nuclei fraction: 105%
CBRC016
  cleaved PARP positive nuclei fraction: 43.4%
CBRC017
  cleaved PARP positive nuclei fraction: 93%
CBRC034
  cleaved PARP positive nuclei fraction: 89.4%
COLO792
  cleaved PARP positive nuclei fraction: 271%
COLO800
  cleaved PARP positive nuclei fraction: 144%
COLO829
  cleaved PARP positive nuclei fraction: 46.3%
G361
  cleaved PARP positive nuclei fraction: 111%
IPC-298
  cleaved PARP positive nuclei fraction: 170%
IST-MEL1
  cleaved PARP positive nuclei fraction: 68.3%
LB2518-MEL
  cleaved PARP positive nuclei fraction: 129%
LOXIMVI
  cleaved PARP positive nuclei fraction: 14.7%

## O=C(Nc1cccc(Cl)c1)Nc1ncc(CCNc2ncnc3ccsc23)s1 + Oc1nc(-c2ccc(C(F)(F)F)cc2)nc2c1CSCC2 [XAV939] (first compound 0.0008 µM, partner dose 2 µM)
501Mel
  cleaved PARP positive nuclei fraction: 101%
A101D
  cleaved PARP positive nuclei fraction: 57.6%
A2058
  cleaved PARP positive nuclei fraction: 97.7%
A375
  cleaved PARP positive nuclei fraction: 15.9%
C32
  cleaved PARP positive nuclei fraction: 62.1%
CBRC013
  cleaved PARP positive nuclei fraction: 45%
CBRC014
  cleaved PARP positive nuclei fraction: 104%
CBRC016
  cleaved PARP positive nuclei fraction: 49%
CBRC017
  cleaved PARP positive nuclei fraction: 72.1%
CBRC034
  cleaved PARP positive nuclei fraction: 118%
COLO792
  cleaved PARP positive nuclei fraction: 121%
COLO800
  cleaved PARP positive nuclei fraction: 107%
COLO829
  cleaved PARP positive nuclei fraction: 123%
G361
  cleaved PARP positive nuclei fraction: 33.1%
IPC-298
  cleaved PARP positive nuclei fraction: 61%
IST-MEL1
  cleaved PARP positive nuclei fraction: 45.8%
LB2518-MEL
  cleaved PARP positive nuclei fraction: 79.9%
LOXIMVI
  cleaved PARP positive nuclei fraction: 40.8%

## C=CCn1c(=O)c2cnc(Nc3ccc(N4CCN(C)CC4)cc3)nc2n1-c1cccc(C(C)(C)O)n1 + COc1ccc(COc2ccc(Cc3cnc(N)nc3N)cc2OC)cc1 [GW2580] (first compound 0.02 µM, partner dose 1 µM)
501Mel
  cleaved PARP positive nuclei fraction: 74.3%
A101D
  cleaved PARP positive nuclei fraction: 145%
A2058
  cleaved PARP positive nuclei fraction: 106%
A375
  cleaved PARP positive nuclei fraction: 192%
C32
  cleaved PARP positive nuclei fraction: 104%
CBRC013
  cleaved PARP positive nuclei fraction: 50.9%
CBRC014
  cleaved PARP positive nuclei fraction: 108%
CBRC016
  cleaved PARP positive nuclei fraction: 41.9%
CBRC017
  cleaved PARP positive nuclei fraction: 83.8%
CBRC034
  cleaved PARP positive nuclei fraction: 135%
COLO792
  cleaved PARP positive nuclei fraction: 98.2%
COLO800
  cleaved PARP positive nuclei fraction: 26%
COLO829
  cleaved PARP positive nuclei fraction: 102%
G361
  cleaved PARP positive nuclei fraction: 202%
IPC-298
  cleaved PARP positive nuclei fraction: 79.6%
IST-MEL1
  cleaved PARP positive nuclei fraction: 57.3%
LB2518-MEL
  cleaved PARP positive nuclei fraction: 182%
LOXIMVI
  cleaved PARP positive nuclei fraction: 35.7%

## Cn1cncc1[C@@](N)(c1ccc(Cl)cc1)c1ccc2c(c1)c(-c1cccc(Cl)c1)cc(=O)n2C [tipifarnib] + Cn1cc(/C=C2\C(=O)Nc3cccnc32)c2ccccc21 [GW441756] (first compound 0.01 µM, partner dose 0.4 µM)
501Mel
  cleaved PARP positive nuclei fraction: 56.4%
A101D
  cleaved PARP positive nuclei fraction: 178%
A2058
  cleaved PARP positive nuclei fraction: 67.8%
A375
  cleaved PARP positive nuclei fraction: 141%
C32
  cleaved PARP positive nuclei fraction: 73.9%
CBRC013
  cleaved PARP positive nuclei fraction: 366%
CBRC014
  cleaved PARP positive nuclei fraction: 184%
CBRC016
  cleaved PARP positive nuclei fraction: 91.1%
CBRC017
  cleaved PARP positive nuclei fraction: 72.1%
CBRC034
  cleaved PARP positive nuclei fraction: 42.4%
COLO792
  cleaved PARP positive nuclei fraction: 77.5%
COLO800
  cleaved PARP positive nuclei fraction: 127%
COLO829
  cleaved PARP positive nuclei fraction: 67.5%
G361
  cleaved PARP positive nuclei fraction: 79.7%
IPC-298
  cleaved PARP positive nuclei fraction: 122%
IST-MEL1
  cleaved PARP positive nuclei fraction: 174%
LB2518-MEL
  cleaved PARP positive nuclei fraction: 79%
LOXIMVI
  cleaved PARP positive nuclei fraction: 31.3%

## Cc1cc(N2CCOCC2)cc2[nH]c(-c3c(NC[C@@H](O)c4cccc(Cl)c4)cc[nH]c3=O)nc12 + CCc1ccc(CCOc2ccc(CC3SC(=O)NC3=O)cc2)nc1 [pioglitazone] (first compound 0.2 µM, partner dose 2 µM)
501Mel
  cleaved PARP positive nuclei fraction: 24.9%
A101D
  cleaved PARP positive nuclei fraction: 60.8%
A2058
  cleaved PARP positive nuclei fraction: 262%
A375
  cleaved PARP positive nuclei fraction: 204%
C32
  cleaved PARP positive nuclei fraction: 133%
CBRC013
  cleaved PARP positive nuclei fraction: 46.4%
CBRC014
  cleaved PARP positive nuclei fraction: 85.6%
CBRC016
  cleaved PARP positive nuclei fraction: 104%
CBRC017
  cleaved PARP positive nuclei fraction: 131%
CBRC034
  cleaved PARP positive nuclei fraction: 84.8%
COLO792
  cleaved PARP positive nuclei fraction: 158%
COLO800
  cleaved PARP positive nuclei fraction: 240%
COLO829
  cleaved PARP positive nuclei fraction: 103%
G361
  cleaved PARP positive nuclei fraction: 98.5%
IPC-298
  cleaved PARP positive nuclei fraction: 142%
IST-MEL1
  cleaved PARP positive nuclei fraction: 78.7%
LB2518-MEL
  cleaved PARP positive nuclei fraction: 174%
LOXIMVI
  cleaved PARP positive nuclei fraction: 48.1%

## Cn1c(Nc2ccc(C(F)(F)F)cc2)nc2cc(Oc3ccnc(-c4ncc(C(F)(F)F)[nH]4)c3)ccc21 + COc1cc(N2CCC(N3CCN(C)CC3)CC2)ccc1Nc1ncc(Cl)c(Nc2ccccc2S(=O)(=O)C(C)C)n1 [NVP-TAE684] (first compound 0.08 µM, partner dose 0.08 µM)
501Mel
  cleaved PARP positive nuclei fraction: 113%
A101D
  cleaved PARP positive nuclei fraction: 184%
A2058
  cleaved PARP positive nuclei fraction: 151%
A375
  cleaved PARP positive nuclei fraction: 184%
C32
  cleaved PARP positive nuclei fraction: 35.5%
CBRC013
  cleaved PARP positive nuclei fraction: 1520%
CBRC014
  cleaved PARP positive nuclei fraction: 257%
CBRC016
  cleaved PARP positive nuclei fraction: 51.1%
CBRC017
  cleaved PARP positive nuclei fraction: 119%
CBRC034
  cleaved PARP positive nuclei fraction: 124%
COLO792
  cleaved PARP positive nuclei fraction: 423%
COLO800
  cleaved PARP positive nuclei fraction: 107%
COLO829
  cleaved PARP positive nuclei fraction: 146%
G361
  cleaved PARP positive nuclei fraction: 158%
IPC-298
  cleaved PARP positive nuclei fraction: 70.6%
IST-MEL1
  cleaved PARP positive nuclei fraction: 46.6%
LB2518-MEL
  cleaved PARP positive nuclei fraction: 276%
LOXIMVI
  cleaved PARP positive nuclei fraction: 84.5%
